The text below walks through data of PMC11538695.

Results are given in words; binding and its absence hold for the method and conditions named. Some entries that bind do so weakly or less than the wild type. For some of these results: Sequences can lack the tags named with a protein.

For test [1], the target named is T1, MBP-tagged syntaxin5 (residues 55-330) (human) (UniProt Q13190).
T1 sequence: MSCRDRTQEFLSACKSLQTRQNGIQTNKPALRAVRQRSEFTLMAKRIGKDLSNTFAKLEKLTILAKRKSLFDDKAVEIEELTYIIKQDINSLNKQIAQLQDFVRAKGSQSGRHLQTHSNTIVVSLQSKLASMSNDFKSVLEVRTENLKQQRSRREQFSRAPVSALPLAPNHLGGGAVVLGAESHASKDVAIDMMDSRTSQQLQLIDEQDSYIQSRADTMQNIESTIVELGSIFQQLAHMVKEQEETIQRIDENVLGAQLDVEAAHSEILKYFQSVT
Kind of test: SEC; pellets of separately expressed SNARE proteins mixed and lysed together, amylose resin by MBP-syntaxin5, then UNIONDEX 200PG gel filtration with SDS-PAGE; 50 mM Tris-HCl pH 7.5, 100 mM NaCl, 1 mM DTT. For orientation: In gel filtration, larger molecules generally elute earlier.

For test [2], the target named is full-length human VCPIP1 (Valosin-Containing Protein-Interacting Protein, p135) (human) (UniProt Q96JH7). Kind of test: cryo-EM structure; full-length VCPIP1-P97/VCP complex reconstituted by size exclusion chromatography; no ATP added; 3.45 Å; both purified.

B1: His6-tagged GosR1 (residues 150-230) (domain or fragment, UniProt O95249 150-230)
chain: KSGSGVNNRRTELFLKEHDHLRNSDRLIEETISIAMATKENMTSQRGMLKSIHSKMNTLANRFPAVNSLIQRINLRKRRDS
With B1, the binding result in test [1] is on record as “binds”.

B2: His6-tagged Bet1 (residues 1-93) (domain or fragment, UniProt O15155 1-93)
chain: MRRAGLGEGVPPGNYGNYGYANSGYSACEEENERLTESLRSKVTAIKSLSIEIGHEVKTQNKLLAEMDSQFDSTTGFLGKTMGKLKILSRGSQ
Take B2: in test [1], the binding entry was “binds”.

B3: His6-tagged Ykt6 (residues 1-193) (domain or fragment, UniProt O15498 1-193)
chain: MKLYSLSVLYKGEAKVVLLKAAYDVSSFSFFQRSSVQEFMTFTSQLIVERSSKGTRASVKEQDYLCHVYVRNDSLAGVVIADNEYPSRVAFTLLEKVLDEFSKQVDRIDWPVGSPATIHYPALDGHLSRYQNPREADPMTKVQAELDETKIILHNTMESLLERGEKLDDLVSKSEVLGTQSKAFYKTARKQNS
As for B3, the binding result in test [1] is given as “binds”.

B4: full-length human VCPIP1 (Valosin-Containing Protein-Interacting Protein, p135) (enzyme, UniProt Q96JH7 1-1222)
chain: MSQPPPPPPPLPPPPPPPEAPQTPSSLASAAASGGLLKRRDRRILSGSCPDPKCQARLFFPASGSVSIECTECGQRHEQQQLLGVEEVTDPDVVLHNLLRNALLGVTGAPKKNTELVKVMGLSNYHCKLLSPILARYGMDKQTGRAKLLRDMNQGELFDCALLGDRAFLIEPEHVNTVGYGKDRSGSLLYLHDTLEDIKRANKSQECLIPVHVDGDGHCLVHAVSRALVGRELFWHALRENLKQHFQQHLARYQALFHDFIDAAEWEDIINECDPLFVPPEGVPLGLRNIHIFGLANVLHRPIILLDSLSGMRSSGDYSATFLPGLIPAEKCTGKDGHLNKPICIAWSSSGRNHYIPLVGIKGAALPKLPMNLLPKAWGVPQDLIKKYIKLEEDGGCVIGGDRSLQDKYLLRLVAAMEEVFMDKHGIHPSLVADVHQYFYRRTGVIGVQPEEVTAAAKKAVMDNRLHKCLLCGALSELHVPPEWLAPGGKLYNLAKSTHGQLRTDKNYSFPLNNLVCSYDSVKDVLVPDYGMSNLTACNWCHGTSVRKVRGDGSIVYLDGDRTNSRSTGGKCGCGFKHFWDGKEYDNLPEAFPITLEWGGRVVRETVYWFQYESDSSLNSNVYDVAMKLVTKHFPGEFGSEILVQKVVHTILHQTAKKNPDDYTPVNIDGAHAQRVGDVQGQESESQLPTKIILTGQKTKTLHKEELNMSKTERTIQQNITEQASVMQKRKTEKLKQEQKGQPRTVSPSTIRDGPSSAPATPTKAPYSPTTSKEKKIRITTNDGRQSMVTLKSSTTFFELQESIAREFNIPPYLQCIRYGFPPKELMPPQAGMEKEPVPLQHGDRITIEILKSKAEGGQSAAAHSAHTVKQEDIAVTGKLSSKELQEQAEKEMYSLCLLATLMGEDVWSYAKGLPHMFQQGGVFYSIMKKTMGMADGKHCTFPHLPGKTFVYNASEDRLELCVDAAGHFPIGPDVEDLVKEAVSQVRAEATTRSRESSPSHGLLKLGSGGVVKKKSEQLHNVTAFQGKGHSLGTASGNPHLDPRARETSVVRKHNTGTDFSNSSTKTEPSVFTASSSNSELIRIAPGVVTMRDGRQLDPDLVEAQRKKLQEMVSSIQASMDRHLRDQSTEQSPSDLPQRKTEVVSSSAKSGSLQTGLPESFPLTGGTENLNTETTDGCVADALGAAFATRSKAQRGNSVEELEEMDSQDAEMTNTTEPMDHS
As to B4, in test [2], the binding result is “no binding”.
